Article PMC7862700
This is a selection; strong and weak results do not stand in their true shares. At the low end of the ranking, values are background and their order means little.

Target: T1, ELF3 (UniProt P78545)
T1 sequence: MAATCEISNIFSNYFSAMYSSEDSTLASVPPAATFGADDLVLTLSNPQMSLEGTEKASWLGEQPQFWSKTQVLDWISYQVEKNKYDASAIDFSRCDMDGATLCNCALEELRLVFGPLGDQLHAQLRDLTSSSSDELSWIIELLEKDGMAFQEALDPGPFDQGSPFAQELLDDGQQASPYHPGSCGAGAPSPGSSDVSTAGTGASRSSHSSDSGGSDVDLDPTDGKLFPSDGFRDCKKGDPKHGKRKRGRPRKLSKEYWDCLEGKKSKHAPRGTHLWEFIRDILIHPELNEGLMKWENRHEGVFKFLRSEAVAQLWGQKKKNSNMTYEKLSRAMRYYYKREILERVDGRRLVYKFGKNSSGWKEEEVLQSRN
Assay: DAPPL (digital affinity profiling via proximity ligation, sequencing)
Conditions: 10 mM Tris-HCl pH 7.5, 50 mM NaCl, 1 mM DTT, 4% glycerol, room temperature, 30 min; GST-TFs on glutathione beads, 16-mer random dsDNA library, 0.1% …; high values mean tight binding; double strand, one strand shown; scale: fold enrichment (6-mer frequency, TF over GST control)

Sequence	binding signal
GTTACT	1.4
GGGAAA	1.03
TGTAAG	1.3
CGGTTC	1.33
ACTATC	1.22
CTTCCA	1.49
TTTTAG	0.975
ACGTTG	0.938
CTCGGC	1.52
TGCATT	1.49
CCCGTA	1.14
CGTCCT	1.31
ACGCTT	1.55
AGTGCC	0.939
TGGGAT	1.12
GCCACT	1.1
AGTTCT	1.17
GCTGGC	0.88
TTCTAG	1.42
AAGGGC	0.954
TCAGTT	0.99
CACTAG	0.961

Sequence	binding signal
AAGAAC	1.16
AGTATG	1.08
AGAACA	0.994
TGGCCC	0.949
TACAGC	1.16
AATTGA	1.3
ATTCGC	1.27
TTCTAA	1.04
GCCCGC	0.993
AAGGCA	0.926
CTGACA	1.25
ACCACG	0.986
CTTCTC	1.47
GAAATT	1.44
CCTTGC	1.49
AAGTAG	1.31
TAGTTG	0.942
CATGTA	1.03
GGAAGT	3.25
TATCTG	0.986
ATATTT	1.54
TTCTTA	1.47

Sequence	binding signal
TCCTCG	1.53
GTACCT	1.57
TTGACG	1.21
AATCTA	1.04
ATCAAA	1.04
AGGATG	0.943
GCACGA	1.16
AGCTTA	1.23
GTTATG	1.25
GGCACT	1.29
AGGGAA	1.01
TGATCC	1.1
CATTAA	1.05
CCCGGT	1.06
CGCTGC	1.03
TAACGG	0.946
CCTCGC	1.56
GTGTTT	1.17
ACTGGT	1.06
TCAAGC	1.04
ACCCTC	1.12

Laid out differently: entries from further up.
Sequence,binding signal
AGGGAA,1.01
TGATCC,1.1
CATTAA,1.05
CCCGGT,1.06
